Record: PubChem BioAssay AID1224828 (NIAID, 2016)

Test: 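Find genes required for NF-kappaB p65 moving into the nucleus after LPS in mouse macrophages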 (primary screen)
Cell system: mouse RAW264.7 G9 macrophage reporter cells (GFP-p65, Tnf promoter-mCherry)
Reagents: siRNA pool against mouse genes, 100 nM
Timing: 2 days siRNA transfection, then 40 min LPS before fixation
Challenge: LPS (Salmonella minnesota R595) at 10 ng/ml
Measured: 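Imaged p65 nuclear translocation ratio, normalised to the plate median, converted to robust z-scores and averaged across two replicates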
Reading the numbers: p65 translocation robust z-score: higher = more nuclear NF-kappaB p65 after LPS than the plate median; nuclear/cytoplasmic p65 ratio: higher = more nuclear NF-kappaB p65
Call rule: 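Active if robust z is above 3.3 (negative regulators) or below -1.56, the Tlr4 control median (positive regulators); activity score 50 or more; control wells not called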
Meaning of the calls: active = hit (p65 shift raised or lowered); inactive = no clear change
In all, the deposit lists about 17,000 reagents; this is a part drawn at random. In the full data, 762 (4.5%) are marked active. 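Active calls include both raised and lowered p65 entry, mostly lowered; wells with fewer than 50 cells lack a z-score.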 The raw values are shown without normalisation. A number with no mark means an inactive call. No sequences are given here.

Or10g3 showed p65 translocation robust z-score 1.74; nuclear/cytoplasmic p65 ratio, rep 1 = 1.87; nuclear/cytoplasmic p65 ratio, rep 2 = 1.65; low cell count flag enough cells to score.
After knock-down of Zzz3, the record shows p65 translocation robust z-score -0.14; nuclear/cytoplasmic p65 ratio, rep 1 = 1.45; nuclear/cytoplasmic p65 ratio, rep 2 = 1.23; low cell count flag enough cells to score.
Against Or4c102, the entry reads p65 translocation robust z-score -0.66; nuclear/cytoplasmic p65 ratio, rep 1 = 1.59; nuclear/cytoplasmic p65 ratio, rep 2 = 1.45; low cell count flag enough cells to score.
With knock-down of Pkia, the screen gave nuclear/cytoplasmic p65 ratio, rep 1 = 1.89; nuclear/cytoplasmic p65 ratio, rep 2 = 1.23; low cell count flag fewer than 50 cells per well; well left out of scoring.
Or4c12 scored p65 translocation robust z-score 1.91; nuclear/cytoplasmic p65 ratio, rep 1 = 1.79; nuclear/cytoplasmic p65 ratio, rep 2 = 1.76; low cell count flag enough cells to score.
After knock-down of P4htm, the screen gave p65 translocation robust z-score -0.1; nuclear/cytoplasmic p65 ratio, rep 1 = 1.59; nuclear/cytoplasmic p65 ratio, rep 2 = 1.61; low cell count flag enough cells to score.
Against Acadvl, the values are p65 translocation robust z-score -0.25; nuclear/cytoplasmic p65 ratio, rep 1 = 1.57; nuclear/cytoplasmic p65 ratio, rep 2 = 1.59; low cell count flag enough cells to score.
Ilk gave p65 translocation robust z-score -0.19; nuclear/cytoplasmic p65 ratio, rep 1 = 1.6; nuclear/cytoplasmic p65 ratio, rep 2 = 1.4; low cell count flag enough cells to score.
Knock-down of Gdf1 resulted in: p65 translocation robust z-score -2.04 (active); nuclear/cytoplasmic p65 ratio, rep 1 = 1.29; nuclear/cytoplasmic p65 ratio, rep 2 = 1.18; low cell count flag enough cells to score.
Silencing of Ift70a1 came out at: nuclear/cytoplasmic p65 ratio, rep 1 = 1.1; nuclear/cytoplasmic p65 ratio, rep 2 = 1.36; low cell count flag fewer than 50 cells per well; well left out of scoring.
Depletion of Csf2rb2 came out at: p65 translocation robust z-score -0.55; nuclear/cytoplasmic p65 ratio, rep 1 = 1.38; nuclear/cytoplasmic p65 ratio, rep 2 = 1.33; low cell count flag enough cells to score.
With knock-down of Cd79b, the screen gave p65 translocation robust z-score 1.13; nuclear/cytoplasmic p65 ratio, rep 1 = 1.59; nuclear/cytoplasmic p65 ratio, rep 2 = 1.52; low cell count flag enough cells to score.
Cherp scored p65 translocation robust z-score 0.35; nuclear/cytoplasmic p65 ratio, rep 1 = 1.55; nuclear/cytoplasmic p65 ratio, rep 2 = 1.95; low cell count flag enough cells to score.
Knock-down of Fam149b gave: p65 translocation robust z-score 0.57; nuclear/cytoplasmic p65 ratio, rep 1 = 1.82; nuclear/cytoplasmic p65 ratio, rep 2 = 1.39; low cell count flag enough cells to score.
Against Igfals, the values are p65 translocation robust z-score 1.11; nuclear/cytoplasmic p65 ratio, rep 1 = 1.58; nuclear/cytoplasmic p65 ratio, rep 2 = 1.52; low cell count flag enough cells to score.
With knock-down of Sesn1, the screen gave p65 translocation robust z-score -0.25; nuclear/cytoplasmic p65 ratio, rep 1 = 1.52; nuclear/cytoplasmic p65 ratio, rep 2 = 1.51; low cell count flag enough cells to score.
Silencing of Or10d5 gave: p65 translocation robust z-score 2.1; nuclear/cytoplasmic p65 ratio, rep 1 = 1.72; nuclear/cytoplasmic p65 ratio, rep 2 = 1.2; low cell count flag enough cells to score.
Snx6 showed p65 translocation robust z-score 0.34; nuclear/cytoplasmic p65 ratio, rep 1 = 1.32; nuclear/cytoplasmic p65 ratio, rep 2 = 1.27; low cell count flag enough cells to score.
With knock-down of Ppp1r2 the results were p65 translocation robust z-score 0.18; nuclear/cytoplasmic p65 ratio, rep 1 = 1.49; nuclear/cytoplasmic p65 ratio, rep 2 = 1.46; low cell count flag enough cells to score.
Silencing of Btrc came out at: p65 translocation robust z-score -0.76; nuclear/cytoplasmic p65 ratio, rep 1 = 1.56; nuclear/cytoplasmic p65 ratio, rep 2 = 1.45; low cell count flag enough cells to score.
Silencing of Or1r1 gave: nuclear/cytoplasmic p65 ratio, rep 1 = 1.14; nuclear/cytoplasmic p65 ratio, rep 2 = 1.3; low cell count flag fewer than 50 cells per well; well left out of scoring.
With knock-down of Hdac8, the record shows p65 translocation robust z-score -0.78; nuclear/cytoplasmic p65 ratio, rep 1 = 1.28; nuclear/cytoplasmic p65 ratio, rep 2 = 1.33; low cell count flag enough cells to score.
Stom showed p65 translocation robust z-score -1.79 (active); nuclear/cytoplasmic p65 ratio, rep 1 = 1.3; nuclear/cytoplasmic p65 ratio, rep 2 = 1.24; low cell count flag enough cells to score.
For Ercc4, the entry reads p65 translocation robust z-score 0.53; nuclear/cytoplasmic p65 ratio, rep 1 = 1.55; nuclear/cytoplasmic p65 ratio, rep 2 = 1.43; low cell count flag enough cells to score.
Silencing of Mbl2 gave: p65 translocation robust z-score 0.91; nuclear/cytoplasmic p65 ratio, rep 1 = 1.56; nuclear/cytoplasmic p65 ratio, rep 2 = 1.46; low cell count flag enough cells to score.
Silencing of Atg101 gave: nuclear/cytoplasmic p65 ratio, rep 1 = 1.25; nuclear/cytoplasmic p65 ratio, rep 2 = 1.49; low cell count flag fewer than 50 cells per well; well left out of scoring.
Depletion of BC048671 resulted in: p65 translocation robust z-score 2.08; nuclear/cytoplasmic p65 ratio, rep 1 = 1.78; nuclear/cytoplasmic p65 ratio, rep 2 = 1.74; low cell count flag enough cells to score.

Active calls, of those listed so far:
Gdf1 → p65 translocation robust z-score: -2.04 (active); nuclear/cytoplasmic p65 ratio, rep 1: 1.29; nuclear/cytoplasmic p65 ratio, rep 2: 1.18; low cell count flag: enough cells to score
Stom → p65 translocation robust z-score: -1.79 (active); nuclear/cytoplasmic p65 ratio, rep 1: 1.3; nuclear/cytoplasmic p65 ratio, rep 2: 1.24; low cell count flag: enough cells to score
